Measured values taken from PubChem BioAssay AID1347426 (Functional Genomics Laboratory (NCATS/FGL), 2020).
Among all 31,000 sequences or so, about 1,400 (4.5%) were called active.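 The calls were made as follows: active = median seed-adjusted z-score above 1 or below -1; inactive = the rest.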 Some of the results follow.

Assay: Novel Modifiers of Survival Motor Neuron (SMN) Protein: Gene Identification via Genome-wide siRNA Screen;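 also: luminescence tracks full-length SMN protein made from the SMN2 reporter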
Details: HEK293T SMN2-luciferase reporter, siRNA knockdown, 72 h; actives lie on both sides
Outline: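 HEK293T cells stably carrying an SMN2 promoter/splicing cassette–luciferase reporter were reverse-transfected with 1 pmol siRNA per well (druggable-genome library, 3 siRNAs per gene) and grown 72 h at 37 °C. Luminescence, normalized to negative-control siRNA and log10-transformed, was scored as MAD.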

| Sequence | median seed-adjusted z-score |
| --- | --- |
| CGCCUCCAGUUUUAACUCUTT against POU2F3 | active: -1.53 |
| GGAGCAGAAAUAAGCCUUATT against SCN3B | inactive: 0 |
| GGAGGGUCUGGAUACCUUUTT against KLK9 | inactive: -0.476 |
| GGCAAGUCAUGGUGCUGAATT against TESK1 | inactive: 0.384 |
| GGGUUUUUGUGGGCGGAGATT against ISYNA1 | inactive: 0 |
| GCAGAAAGAUAGAAGGAAATT against CAPN9 | inactive: 0.417 |
| GUACAUUGUGGGUAUAGUATT against TMPRSS11F | inactive: -0.289 |
| CUAUAUGAAUCACUAUACATT against ZNF181 | inactive: -0.154 |
| GGUACCAGAUGGUUCUAGATT against EPHA1 | inactive: -0.092 |
| GAGAUUUGAUGAGAAGAGATT against MMP3 | inactive: 0.0592 |
| GGACCACCGCAUCUCUACATT against BIRC5 | inactive: 0.0236 |
| CCAUCGUCAGCCUCAUGUATT against PTDSS1 | inactive: -0.76 |
| GCAGUUCUGGAGGUACUUUTT against SLC25A6 | inactive: -0.928 |
| CCCUGUAUUUCAUCGAUAATT against TOP1MT | inactive: 0.159 |
| CCUCAGAUGAUAACAGUUUTT against POMGNT1 | inactive: -0.0431 |
| GGCUGCAAAAUCUCACUAATT against TLR8 | inactive: 0 |
| CCCGGCACGUCAUCAUCAATT against KCNG2 | inactive: 0 |
| GGCUGCAGUCUAUACCAUATT against SLC35A1 | inactive: 0.00794 |
| GCUCACCAGUGUCAUGUUUTT against SLC7A4 | inactive: -0.102 |
| CCAUGUAACUCUGACCAAUTT against FBXO44 | inactive: -0.45 |
| GCGUGUCCCUGGAUGUCAATT against HSPB1 | inactive: 0.693 |
| CCAGGGCAAACGCAUCAAATT against NPAS1 | inactive: -0.386 |

In another format: results already given.
CGCCUCCAGUUUUAACUCUTT against POU2F3
  median seed-adjusted z-score: active: -1.53
GCAGUUCUGGAGGUACUUUTT against SLC25A6
  median seed-adjusted z-score: inactive: -0.928
CCCGGCACGUCAUCAUCAATT against KCNG2
  median seed-adjusted z-score: inactive: 0
GGCUGCAGUCUAUACCAUATT against SLC35A1
  median seed-adjusted z-score: inactive: 0.00794

Continuation:

| Sequence | median seed-adjusted z-score |
| --- | --- |
| GCUGCUCACUGUUUCAUGATT against PRSS36 | inactive: 0.589 |
| AGGCUGCGUUUGGACCAGATT against PAPLN | inactive: -0.186 |
| GGGAGAGUGUGCUACGAAATT against NEIL1 | inactive: -0.168 |
| CAUCCAACGACAAUCUAUATT against ATP1A2 | inactive: 0.248 |
| GCCCUAUAGCUGUGCUGAATT against ZNF473 | inactive: -0.166 |
| CCACUACUCUAGGUCCAAATT against SRCAP | inactive: -0.42 |
| CCAGAGACUUAAUACAGGATT against ZNF790 | inactive: 0.245 |
| GAUGAAAUGCUGCCGCAAUTT against WFDC2 | inactive: -0.466 |
| CAAUACCACCGUAUUCUUATT against NFYA | inactive: 0.437 |
| CAGUGCUCAUUUUACAAUATT against HBP1 | inactive: -0.117 |
| CGACAGACCAGGCAGUUCATT against PDE6G | inactive: 0.0109 |
| GCAAUCCAGAGGUACGCUATT against HGF | inactive: -0.569 |
| CCACUUUCAUCGUCUUAUATT against GPR88 | inactive: 0.404 |
| GGAUGUGAAUUAUUGGACATT against HAVCR2 | inactive: 0.205 |
| GAACUUUAUUUACCGAAAATT against POLR1B | inactive: -0.434 |
| GGUUCUUGCUUACACUCUUTT against ESSPL | inactive: 0.328 |
| GGCUACACCUGCAACGUGATT against GRN | inactive: -0.767 |
| CAAGAAACAAGCGACAAAATT against HRASLS3 | inactive: 0.085 |
| GAGUAUCAGCAGAAGAUCATT against SCYL1 | inactive: 0.0409 |
| GGAUCGGCGCAAUUAAGCATT against BHLHB2 | inactive: 0 |
| GCUAUGAAUUCACCAGUAATT against CCL26 | inactive: -0.01 |
| AGACCUCCUACGACAUUAATT against BOC | inactive: -0.0192 |

| Sequence | median seed-adjusted z-score |
| --- | --- |
| GAAAAUCGCUGCCUACUUATT against GSTM3 | inactive: -0.66 |
| GACUAUCAGUUGCUAAAUUTT against HOXB5 | inactive: 0.061 |
| AGAUUGAAAUCGACUUUGATT against BRD4 | active: 1.13 |
| GCUGGACUCUAAUCCCUUUTT against PNPO | inactive: -0.0845 |
| CCAUCUACCUGAACGUGGATT against PFKFB3 | inactive: -0.133 |
| GGAGAGACCAGUAAACCGATT against NSFL1C | inactive: -0.0899 |
| GAGCGGUUCAAGACAAUAATT against RAB13 | inactive: -0.599 |
| CAAGAUGAAUUAAAGCGAUTT against CAND1 | inactive: 0.157 |
| GGAACAAGGUUAAAGCCGATT against PGK1 | inactive: -0.0196 |
| CAACUUUCAUGGGAUGAAUTT against CD33 | inactive: -0.355 |
| CAACCUACAUGUUUGCUGATT against SCARF1 | inactive: -0.324 |
| GAUGCAACGUGGAAAUCAATT against SLC10A2 | inactive: -0.219 |
| AAGUGAUCAUUUCAACCAATT against DHX33 | inactive: -0.689 |
| CGAGGUCAAAUACUAUGAATT against EPHA3 | inactive: 0 |
| CCCUGAAUAUUGCAAUGGATT against ADAM2 | inactive: -0.116 |
| GUAUCGAAUAUCUAUCUGATT against PRSS21 | inactive: -0.306 |
| UCCUGUUCCUGAUUCCCAATT against STK25 | inactive: -0.0703 |
| GAACAGAUGCAAAAUCGGATT against SCYE1 | inactive: 0.437 |
| GCAUCACCGCUUUCAUGAATT against ZFAT | inactive: -0.183 |
| GUCUUAGAAUGAGUAGCAATT against KCNMA1 | inactive: 0 |
| GGCACAAGGAGAAUACAUATT against ACSL1 | inactive: 0.264 |
| GAUCUACUCUGGGAGACAATT against ADAM15 | inactive: -0.682 |

| Sequence | median seed-adjusted z-score |
| --- | --- |
| GAACUGACCGAGUCAGAAATT against LOC4951 | inactive: 0.0691 |
| GAUGGAACAUACAAAUUUUTT against TMED2 | inactive: 0.288 |
| CACUGACUAUUAUCAUUCATT against WHSC1L1 | inactive: -0.283 |
| GUCAGUCCCUUUGACCAUATT against PTPN1 | inactive: 0.05 |
| GGCACUUCAUGUUCCGGAATT against DYRK1B | inactive: 0.29 |
| ACGUGGAAGUGACCCGGAATT against MTX1 | inactive: -0.159 |
| CCAAUGCAAUCAUUAAUGATT against NRXN1 | inactive: 0.433 |
| GCACCUGCUUAAUCGCGAATT against ACY3 | inactive: 0.568 |
| GUGCCCAACAAGUAUCUAATT against SEMA6C | inactive: 0.321 |
| GGAGGCAUUUGAAGUUCCATT against FARP1 | inactive: -0.487 |
| GGUUGGUUACUUUUCGAUATT against IQCH | inactive: 0 |
| GAAGAGAACUCUAAGAUCATT against CAMK1G | inactive: -0.358 |
| CCACGAGGAUGCGAACAGATT against SPOCK1 | inactive: -0.596 |
| GCUCUUGCCUGAACCAGUUTT against GDPD3 | inactive: -0.0754 |
| AGUCAGAAUCCGUGAGUUATT against FPR1 | inactive: 0.0229 |
| CGAUGACUCAUUACCCAAUTT against STK17B | inactive: -0.971 |
| GGCACUACCGGAGAACUAATT against CNTN2 | inactive: 0 |
| CGAAGAUCCCUGUUUUGCATT against KIF1B | inactive: 0.376 |
| GAAGAGAUCCUGAUUGUGATT against ZNF500 | inactive: 0 |
| GUGUCUCAGCUAAUCCAAATT against ATP5G3 | inactive: 0 |
| GCAUCUCAAUAUCAACAAUTT against LINGO2 | inactive: 0.123 |
| GCAAUUUCCUGCAACCAGUTT against STK33 | inactive: -0.168 |

| Sequence | median seed-adjusted z-score |
| --- | --- |
| GUGAUGAUGUGAUCGAAUUTT against PDIA6 | inactive: -0.269 |
| CGCGUUCUUCGAUAUGGUATT against PCDHGB6 | inactive: 0.34 |
| GAGUAUAAGGUGAAGUUUUTT against SDF4 | inactive: -0.422 |
| GCAAGAUCCCAAAUCAGCATT against ADAT1 | inactive: 0.404 |
| CUCUGAUUACAAACGCAUATT against C5 | inactive: 0.153 |
| GAAUGAUUCUUUCAAUCAUTT against MS4A1 | inactive: 0.414 |
| GCCCAGAGACUAUUCAGUATT against SF3A3 | active: -2.1 |
| ACAUCGACGGUCAAGGCAATT against GATA3 | inactive: -0.197 |
| GGACAAAUAAAUUUGUAAATT against NYX | inactive: 0.0685 |
| GGAGAUCCCAGAUAAAUGUTT against FCRL1 | inactive: -0.873 |
| GUUCUGCAAUAAGAGGCAATT against POU6F2 | inactive: 0.416 |
| GCUCGGCUAUGACCCUUAUTT against TPST2 | inactive: -0.682 |
| CAAGUGACACUGUACUUUATT against GUCY2D | inactive: 0 |
| CAGGCUACAGUGAACAGAATT against GNL1 | inactive: 0.154 |
| GGCGUAGUUUUGAAACUCATT against MBD3 | inactive: 0.708 |
| CUACAGAUGUCGAGGUUUUTT against KIR2DL4 | inactive: -0.271 |
| CUGACAGUCUACUAAGUUATT against RGS7 | inactive: 0.415 |
| GCUUAGACUUGUUCCAACATT against PSMD9 | inactive: 0.266 |
| GCACGACAGAUUAUAACCATT against ARHGAP21 | inactive: 0.229 |
| GCCCAGCACACGAUGCUUATT against TCIRG1 | inactive: 0.123 |
